The values below come from the supplement of paper PMC12067093, “Discovery and optimisation of a covalent ligand for TRIM25 and its application to targeted protein ubiquitination” (Chemical Science, 2025).

By UniProt entry, the sequences of proteins in these tests, tags left out. Where a name states a change or a piece, a line headed by the entry shows the natural chain unless it says otherwise.
UniProt Q8NBS9: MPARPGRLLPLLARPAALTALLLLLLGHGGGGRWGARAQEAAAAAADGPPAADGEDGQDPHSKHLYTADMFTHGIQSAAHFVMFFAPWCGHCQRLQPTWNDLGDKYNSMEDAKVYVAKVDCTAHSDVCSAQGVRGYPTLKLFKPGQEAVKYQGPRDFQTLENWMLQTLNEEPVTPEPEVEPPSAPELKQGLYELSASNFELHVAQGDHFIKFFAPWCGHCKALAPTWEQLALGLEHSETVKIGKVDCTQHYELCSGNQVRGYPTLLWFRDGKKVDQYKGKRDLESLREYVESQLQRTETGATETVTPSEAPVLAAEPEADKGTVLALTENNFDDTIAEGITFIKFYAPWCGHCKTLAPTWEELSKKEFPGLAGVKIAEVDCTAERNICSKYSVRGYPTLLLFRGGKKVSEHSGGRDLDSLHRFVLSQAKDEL
UniProt Q9Y5S1: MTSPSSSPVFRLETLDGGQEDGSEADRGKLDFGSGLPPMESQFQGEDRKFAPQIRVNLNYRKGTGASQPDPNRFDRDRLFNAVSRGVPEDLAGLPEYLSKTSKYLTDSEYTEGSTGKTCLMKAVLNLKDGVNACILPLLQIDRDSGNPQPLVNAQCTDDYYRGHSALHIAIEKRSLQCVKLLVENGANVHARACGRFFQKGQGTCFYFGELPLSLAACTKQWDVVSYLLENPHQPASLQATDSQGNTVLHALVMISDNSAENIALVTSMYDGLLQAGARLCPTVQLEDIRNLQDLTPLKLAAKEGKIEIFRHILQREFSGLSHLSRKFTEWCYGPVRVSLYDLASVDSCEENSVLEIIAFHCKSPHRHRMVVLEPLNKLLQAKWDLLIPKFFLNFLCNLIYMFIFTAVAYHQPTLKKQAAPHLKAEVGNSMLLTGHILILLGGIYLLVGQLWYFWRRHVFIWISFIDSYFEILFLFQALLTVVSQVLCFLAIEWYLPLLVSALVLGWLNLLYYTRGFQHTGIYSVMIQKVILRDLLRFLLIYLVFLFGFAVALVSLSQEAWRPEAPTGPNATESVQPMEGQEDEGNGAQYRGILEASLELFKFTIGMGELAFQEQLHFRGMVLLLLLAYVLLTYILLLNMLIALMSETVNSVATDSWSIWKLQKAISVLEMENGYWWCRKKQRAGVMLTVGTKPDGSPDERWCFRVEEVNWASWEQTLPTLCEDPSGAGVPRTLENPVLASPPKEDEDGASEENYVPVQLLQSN
UniProt P10155: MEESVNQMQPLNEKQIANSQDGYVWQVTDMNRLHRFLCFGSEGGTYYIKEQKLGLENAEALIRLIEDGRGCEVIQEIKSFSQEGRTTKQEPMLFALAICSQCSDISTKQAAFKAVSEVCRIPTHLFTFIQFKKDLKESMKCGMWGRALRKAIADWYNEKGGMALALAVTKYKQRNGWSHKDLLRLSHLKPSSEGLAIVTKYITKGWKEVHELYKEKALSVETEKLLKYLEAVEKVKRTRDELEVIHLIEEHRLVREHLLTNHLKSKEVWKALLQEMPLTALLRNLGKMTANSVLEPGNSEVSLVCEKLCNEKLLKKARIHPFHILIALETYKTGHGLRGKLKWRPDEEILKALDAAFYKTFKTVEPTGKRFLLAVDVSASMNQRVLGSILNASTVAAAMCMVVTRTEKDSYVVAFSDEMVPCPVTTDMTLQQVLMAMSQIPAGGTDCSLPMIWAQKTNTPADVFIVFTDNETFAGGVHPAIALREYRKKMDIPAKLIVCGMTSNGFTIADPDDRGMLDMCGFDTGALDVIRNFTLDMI
UniProt P49815: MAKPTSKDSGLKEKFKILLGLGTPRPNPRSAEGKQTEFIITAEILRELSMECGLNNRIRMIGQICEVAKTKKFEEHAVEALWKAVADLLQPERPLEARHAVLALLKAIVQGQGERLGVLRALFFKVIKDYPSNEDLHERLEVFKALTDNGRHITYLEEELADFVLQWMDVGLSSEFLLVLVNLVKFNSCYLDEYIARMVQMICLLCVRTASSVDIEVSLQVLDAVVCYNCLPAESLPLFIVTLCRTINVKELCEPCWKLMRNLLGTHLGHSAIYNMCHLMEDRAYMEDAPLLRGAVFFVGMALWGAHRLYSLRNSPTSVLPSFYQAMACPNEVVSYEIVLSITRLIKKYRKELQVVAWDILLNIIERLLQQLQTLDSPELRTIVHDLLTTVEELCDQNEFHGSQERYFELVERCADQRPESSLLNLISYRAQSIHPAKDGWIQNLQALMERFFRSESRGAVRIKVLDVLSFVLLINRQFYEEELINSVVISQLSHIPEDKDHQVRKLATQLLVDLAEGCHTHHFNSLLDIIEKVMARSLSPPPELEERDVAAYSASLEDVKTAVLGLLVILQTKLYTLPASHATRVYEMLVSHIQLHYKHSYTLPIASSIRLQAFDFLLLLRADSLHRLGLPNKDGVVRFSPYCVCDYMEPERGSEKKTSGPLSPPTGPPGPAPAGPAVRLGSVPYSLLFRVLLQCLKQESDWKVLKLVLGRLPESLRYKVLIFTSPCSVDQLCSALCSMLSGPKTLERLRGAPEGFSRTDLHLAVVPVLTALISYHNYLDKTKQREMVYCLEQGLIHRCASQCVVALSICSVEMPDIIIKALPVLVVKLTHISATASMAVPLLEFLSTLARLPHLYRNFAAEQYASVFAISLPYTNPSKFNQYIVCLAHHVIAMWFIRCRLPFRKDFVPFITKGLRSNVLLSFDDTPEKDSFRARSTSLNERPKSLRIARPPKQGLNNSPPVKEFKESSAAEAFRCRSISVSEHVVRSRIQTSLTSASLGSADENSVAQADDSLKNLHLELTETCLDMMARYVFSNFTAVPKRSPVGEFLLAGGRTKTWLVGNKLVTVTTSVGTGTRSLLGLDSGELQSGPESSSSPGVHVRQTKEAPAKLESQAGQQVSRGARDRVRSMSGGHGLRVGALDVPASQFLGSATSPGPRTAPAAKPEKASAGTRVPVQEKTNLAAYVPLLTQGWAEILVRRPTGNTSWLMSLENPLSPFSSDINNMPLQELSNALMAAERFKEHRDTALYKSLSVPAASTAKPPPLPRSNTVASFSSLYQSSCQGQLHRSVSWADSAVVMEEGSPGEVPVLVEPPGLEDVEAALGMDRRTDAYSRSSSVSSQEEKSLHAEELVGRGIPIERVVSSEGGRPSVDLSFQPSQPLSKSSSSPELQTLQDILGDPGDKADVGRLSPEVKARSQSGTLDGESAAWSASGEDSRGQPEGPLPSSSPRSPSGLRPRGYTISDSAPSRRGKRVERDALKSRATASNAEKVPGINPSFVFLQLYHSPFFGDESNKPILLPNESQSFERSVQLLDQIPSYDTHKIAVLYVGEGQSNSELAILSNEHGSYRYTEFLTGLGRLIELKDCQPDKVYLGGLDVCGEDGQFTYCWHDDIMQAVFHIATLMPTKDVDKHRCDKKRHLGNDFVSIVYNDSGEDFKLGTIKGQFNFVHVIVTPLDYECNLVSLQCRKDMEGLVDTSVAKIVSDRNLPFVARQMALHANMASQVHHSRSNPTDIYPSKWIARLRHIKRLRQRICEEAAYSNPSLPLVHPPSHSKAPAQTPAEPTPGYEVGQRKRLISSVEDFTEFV
UniProt Q9BSJ2, whole entry, looked up: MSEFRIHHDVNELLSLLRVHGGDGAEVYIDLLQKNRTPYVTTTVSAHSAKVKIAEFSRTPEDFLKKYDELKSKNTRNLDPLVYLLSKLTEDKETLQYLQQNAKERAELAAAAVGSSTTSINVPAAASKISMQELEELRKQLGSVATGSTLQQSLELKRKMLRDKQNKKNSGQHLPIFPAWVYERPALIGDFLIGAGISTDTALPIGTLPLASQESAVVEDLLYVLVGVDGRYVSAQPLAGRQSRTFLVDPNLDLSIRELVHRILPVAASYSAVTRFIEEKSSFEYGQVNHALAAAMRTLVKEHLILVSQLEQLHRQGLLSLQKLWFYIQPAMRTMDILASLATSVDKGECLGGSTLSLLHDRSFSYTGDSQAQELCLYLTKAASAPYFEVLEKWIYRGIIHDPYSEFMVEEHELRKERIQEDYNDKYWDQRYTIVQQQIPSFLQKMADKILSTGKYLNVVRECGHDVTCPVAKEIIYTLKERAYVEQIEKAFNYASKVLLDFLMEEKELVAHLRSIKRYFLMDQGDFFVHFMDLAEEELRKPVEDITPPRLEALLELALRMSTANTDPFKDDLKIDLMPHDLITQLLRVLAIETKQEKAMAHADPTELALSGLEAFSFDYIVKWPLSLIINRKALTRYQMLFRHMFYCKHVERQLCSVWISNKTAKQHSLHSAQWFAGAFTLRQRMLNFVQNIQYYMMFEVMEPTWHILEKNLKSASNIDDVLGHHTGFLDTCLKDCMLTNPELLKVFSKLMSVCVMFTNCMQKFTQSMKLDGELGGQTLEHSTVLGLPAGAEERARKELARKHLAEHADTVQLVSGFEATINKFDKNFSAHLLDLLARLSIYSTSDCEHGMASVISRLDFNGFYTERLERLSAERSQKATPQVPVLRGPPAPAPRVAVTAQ
UniProt Q6PGP7, whole entry, looked up: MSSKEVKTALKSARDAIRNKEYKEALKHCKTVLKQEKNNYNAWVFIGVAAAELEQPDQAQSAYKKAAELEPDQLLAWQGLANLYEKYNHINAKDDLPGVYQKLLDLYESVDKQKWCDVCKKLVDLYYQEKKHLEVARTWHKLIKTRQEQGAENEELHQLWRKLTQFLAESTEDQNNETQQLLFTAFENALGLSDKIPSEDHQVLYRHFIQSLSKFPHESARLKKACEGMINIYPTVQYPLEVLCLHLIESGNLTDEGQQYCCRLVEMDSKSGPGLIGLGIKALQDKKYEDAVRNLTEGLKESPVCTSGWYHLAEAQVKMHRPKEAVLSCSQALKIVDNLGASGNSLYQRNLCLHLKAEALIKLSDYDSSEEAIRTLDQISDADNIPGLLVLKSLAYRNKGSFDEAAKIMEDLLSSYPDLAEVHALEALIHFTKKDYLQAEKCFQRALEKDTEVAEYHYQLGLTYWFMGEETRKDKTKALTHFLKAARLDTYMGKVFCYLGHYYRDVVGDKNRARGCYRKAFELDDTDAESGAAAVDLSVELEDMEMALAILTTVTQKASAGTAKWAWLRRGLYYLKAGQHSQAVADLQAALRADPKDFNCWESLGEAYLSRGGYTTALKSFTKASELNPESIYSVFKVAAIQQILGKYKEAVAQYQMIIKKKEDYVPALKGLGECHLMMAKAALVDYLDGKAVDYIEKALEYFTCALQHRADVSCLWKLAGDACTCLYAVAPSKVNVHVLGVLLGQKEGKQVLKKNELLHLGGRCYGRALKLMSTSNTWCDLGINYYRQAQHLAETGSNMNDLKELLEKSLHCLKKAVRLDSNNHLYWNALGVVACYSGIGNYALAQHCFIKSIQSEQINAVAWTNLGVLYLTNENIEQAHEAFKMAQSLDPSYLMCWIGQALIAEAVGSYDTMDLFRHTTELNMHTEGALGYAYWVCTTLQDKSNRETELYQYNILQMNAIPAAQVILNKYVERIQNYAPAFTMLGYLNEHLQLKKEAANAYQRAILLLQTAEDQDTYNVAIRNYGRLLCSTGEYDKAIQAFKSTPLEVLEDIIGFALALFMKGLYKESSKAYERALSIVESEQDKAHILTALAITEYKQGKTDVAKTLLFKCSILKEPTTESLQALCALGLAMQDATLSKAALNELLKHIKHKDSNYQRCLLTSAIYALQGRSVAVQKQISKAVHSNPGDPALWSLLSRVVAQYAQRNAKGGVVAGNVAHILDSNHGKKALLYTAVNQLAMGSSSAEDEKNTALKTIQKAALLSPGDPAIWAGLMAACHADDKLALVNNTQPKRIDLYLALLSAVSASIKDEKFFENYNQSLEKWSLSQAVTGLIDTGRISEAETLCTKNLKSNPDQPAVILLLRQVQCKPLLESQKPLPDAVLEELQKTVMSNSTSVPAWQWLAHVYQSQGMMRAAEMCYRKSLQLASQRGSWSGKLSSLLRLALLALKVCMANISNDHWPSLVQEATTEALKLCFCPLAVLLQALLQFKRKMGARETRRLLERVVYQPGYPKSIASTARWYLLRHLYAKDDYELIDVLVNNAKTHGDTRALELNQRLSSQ
UniProt Q6IBS0: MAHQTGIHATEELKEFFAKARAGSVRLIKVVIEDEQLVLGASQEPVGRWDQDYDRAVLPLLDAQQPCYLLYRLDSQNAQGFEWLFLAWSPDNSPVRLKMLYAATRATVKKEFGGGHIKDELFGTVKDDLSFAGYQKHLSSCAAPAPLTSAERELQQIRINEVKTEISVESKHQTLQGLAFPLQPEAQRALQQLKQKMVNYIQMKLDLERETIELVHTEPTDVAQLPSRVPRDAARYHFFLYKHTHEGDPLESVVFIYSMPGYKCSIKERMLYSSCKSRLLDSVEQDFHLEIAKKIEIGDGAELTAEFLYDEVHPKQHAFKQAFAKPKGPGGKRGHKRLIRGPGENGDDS
UniProt Q99757: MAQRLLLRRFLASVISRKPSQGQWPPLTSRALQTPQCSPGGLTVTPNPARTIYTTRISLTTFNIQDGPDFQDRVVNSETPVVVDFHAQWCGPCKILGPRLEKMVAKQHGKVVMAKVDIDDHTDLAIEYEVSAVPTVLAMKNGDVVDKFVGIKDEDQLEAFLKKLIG

Compound in this assay: Cc1cc(ccc1-c1ccccc1)C(=O)N1CCCN(CC1)C(=O)CCl [compound 10]
As to the kind of experiment: probe-labelled cysteine peptide fold change vs DMSO (competition) (log2 fold change); higher = less target engagement (more negative = stronger competition). Particulars: THP-1, incubation time: 4 h.

The list shows a part of the results.
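Also: competitive profiling in live THP-1 cells: cysteine peptides tagged with an iodoacetamide desthiobiotin (IA-DTB) probe, intensity after compound treatment relative to DMSO-treated cells.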

Regarding “TRMT2A_Q8IZ69_486_VNAQDNELSNVEFHCGR (UniProt Q8IZ69)”, the “probe-labelled cysteine peptide fold change” value by setting is: (10 µM) -0.187; (50 µM) -0.226.

As to “TXNDC5_Q8NBS9_381_IAEVDCTAER (UniProt Q8NBS9)”, the “probe-labelled cysteine peptide fold change” value was -0.374 (10 µM) and -0.275 (50 µM).

On to “TTC17_Q96AE7_340_HAVLCQQK (UniProt Q96AE7)”, for which the “probe-labelled cysteine peptide fold change” value reads like this: (10 µM) -0.156; (50 µM) 0.282.

Consider “TWISTNB_Q3B726_193_LDSDAAGVFCIR (UniProt Q3B726)”, for which the “probe-labelled cysteine peptide fold change” value is, setting by setting: (10 µM) 0.286; (50 µM) 0.333.

Turning to “TSEN54_Q7Z6J9_338_ETDAESWCQK (UniProt Q7Z6J9)”, the “probe-labelled cysteine peptide fold change” value runs as follows: (10 µM) -0.24; (50 µM) -0.172.

Turning to “TSPYL5_Q86VY4_79_LGEEAACR (UniProt Q86VY4)”, the “probe-labelled cysteine peptide fold change” value reads like this: (10 µM) -0.225; (50 µM) -0.0802.

Consider “TRPV2_Q9Y5S1_218_GQGTCFYFGELPLSLAACTK (UniProt Q9Y5S1)”, for which the “probe-labelled cysteine peptide fold change” value by setting is: (10 µM) 0.0953; (50 µM) 0.15.

“TST_Q16762_248_KVDLSQPLIATCR (UniProt Q16762)”: the “probe-labelled cysteine peptide fold change” value by setting is: (10 µM) -0.0736; (50 µM) -0.892.

For “TTC38_Q5R3I4_128_ACELWEQILQDHPTDMLALK (UniProt Q5R3I4)”, the “probe-labelled cysteine peptide fold change” value is, setting by setting: (10 µM) 0.154; (50 µM) -0.0986.

Turning to TTK_P33981_229_NNSCDSR (UniProt P33981), the “probe-labelled cysteine peptide fold change” value by setting is: (10 µM) 0.592; (50 µM) 0.842.

“TROVE2_P10155_99_QEPMLFALAICSQCSDISTK (UniProt P10155)”: the “probe-labelled cysteine peptide fold change” value runs as follows: (10 µM) 0.128; (50 µM) 0.0812.

As to “TSC2_P49815_791_EMVYCLEQGLIHR (UniProt P49815)”, the “probe-labelled cysteine peptide fold change” value is, setting by setting: (10 µM) 0.0971; (50 µM) -0.0121.

Consider “TRRAP_Q9Y4A5_3849_VNTLVAAANSLDNLCR (UniProt Q9Y4A5)”, for which the “probe-labelled cysteine peptide fold change” value reads like this: (10 µM) -0.068; (50 µM) 0.0346.

Consider “TUBGCP2_Q9BSJ2_733_SASNIDDVLGHHTGFLDTCLK (UniProt Q9BSJ2)”, for which the “probe-labelled cysteine peptide fold change” value is -0.0324 (10 µM) and -0.347 (50 µM).

In the case of “TUBGCP3_Q96CW5_18_SPNVLLQNLCCR (UniProt Q96CW5)”, the “probe-labelled cysteine peptide fold change” value is 0.0264 (10 µM) and -0.245 (50 µM).

For the target “TSC2_P49815_1687_GQFNFVHVIVTPLDYECNLVSLQCR (UniProt P49815)”, the “probe-labelled cysteine peptide fold change” value is 0.0766 (10 µM) and 0.114 (50 µM).

In the case of “TUBGCP2_Q9BSJ2_469_ECGHDVTCPVAK (UniProt Q9BSJ2)”, the “probe-labelled cysteine peptide fold change” value was -0.0991 (10 µM) and -0.239 (50 µM).

As for “TTC37_Q6PGP7_305_ESPVCTSGWYHLAEAQVK (UniProt Q6PGP7)”, the “probe-labelled cysteine peptide fold change” value runs as follows: (10 µM) 0.0355; (50 µM) -0.0923.

For the target “TSPAN14_Q8NG11_200_VVNTQCGYDVR (UniProt Q8NG11)”, the “probe-labelled cysteine peptide fold change” value is -0.311 (10 µM) and -0.248 (50 µM).

Take “TTC27_Q6P3X3_299_EGDVLSNCEFTPAPTPQEHLTK (UniProt Q6P3X3)”: the “probe-labelled cysteine peptide fold change” value (10 µM) is -0.418 and the “probe-labelled cysteine peptide fold change” value (50 µM) is -0.376.

With “TSEN34_Q9BSV6_262_FHAHYIAQCWAPEDTIPLQDLVAAGR (UniProt Q9BSV6)”, the “probe-labelled cysteine peptide fold change” value (10 µM) is -0.132 and the “probe-labelled cysteine peptide fold change” value (50 µM) was determined as 0.164.

As for “TWF2_Q6IBS0_67_AVLPLLDAQQPCYLLYR (UniProt Q6IBS0)”, the “probe-labelled cysteine peptide fold change” value reads like this: (10 µM) 0.115; (50 µM) 0.237.

For the target “TROVE2_P10155_305_MTANSVLEPGNSEVSLVCEK (UniProt P10155)”, the “probe-labelled cysteine peptide fold change” value (10 µM) was -0.205 and the “probe-labelled cysteine peptide fold change” value (50 µM) is -0.161.

On to “TRPV2_Q9Y5S1_332_KFTEWCYGPVR (UniProt Q9Y5S1)”, for which the “probe-labelled cysteine peptide fold change” value is, setting by setting: (10 µM) -0.039; (50 µM) -0.268.

Take “TUBGCP6_Q96RT7_1601_YLPEVFAPNAPDVLSCLELR (UniProt Q96RT7)”: the “probe-labelled cysteine peptide fold change” value by setting is: (10 µM) 0.218; (50 µM) 0.313.

Consider “TTC37_Q6PGP7_1422_AAEMCYR (UniProt Q6PGP7)”, for which the “probe-labelled cysteine peptide fold change” value reads like this: (10 µM) 0.00584; (50 µM) 0.0614.

As to “TSC2_P49815_519_LATQLLVDLAEGCHTHHFNSLLDIIEK (UniProt P49815)”, the “probe-labelled cysteine peptide fold change” value is 0.241 (10 µM) and -0.119 (50 µM).

Take “TTC21B_Q7Z4L5_937_LYLAQDDPDSCLR (UniProt Q7Z4L5)”: the “probe-labelled cysteine peptide fold change” value by setting is: (10 µM) -0.0676; (50 µM) -0.421.

“TUFM_P49411_127_HYAHTDCPGHADYVK (UniProt P49411)”: the “probe-labelled cysteine peptide fold change” value by setting is: (10 µM) 0.0555; (50 µM) 0.0102.

With “TTC27_Q6P3X3_549_EFQECVECFER (UniProt Q6P3X3)”, the “probe-labelled cysteine peptide fold change” value was 0.12 (10 µM) and -0.273 (50 µM).

On to “TTF2_Q9UNY4_754_VQTSIAVCK (UniProt Q9UNY4)”, for which the “probe-labelled cysteine peptide fold change” value runs as follows: (10 µM) -0.0345; (50 µM) -0.157.

Regarding “TSPYL1_Q9H0U9_375_NQDLICSFFTWFSDHSLPESDK (UniProt Q9H0U9)”, the “probe-labelled cysteine peptide fold change” value turned out to be 0.781 (10 µM) and 1.06 (50 µM).

With “TTI1_O43156_994_LQLAVLQGLGPLCER (UniProt O43156)”, the “probe-labelled cysteine peptide fold change” value amounted to 0.0524 (10 µM) and 0.172 (50 µM).

Turning to “TRRAP_Q9Y4A5_429_LLLNLVDCIR (UniProt Q9Y4A5)”, the “probe-labelled cysteine peptide fold change” value (10 µM) amounted to 0.0954 and the “probe-labelled cysteine peptide fold change” value (50 µM) is 0.0803.

For “TXN2_Q99757_90+93_VVNSETPVVVDFHAQWCGPCK (UniProt Q99757)”, the “probe-labelled cysteine peptide fold change” value runs as follows: (10 µM) -1.92; (50 µM) -2.07.

Consider “TTC27_Q6P3X3_514_ETPSLYCLLGDVLGDHSCYDK (UniProt Q6P3X3)”, for which the “probe-labelled cysteine peptide fold change” value reads like this: (10 µM) -0.41; (50 µM) -0.676.
